Some results were stated once for a whole list of compounds, not compound by compound.
Tests used:
[1] = test system: Plutella xylostella; experiment: Insecticidal test on Plutella xylostella (dip of Chinese cabbage seedlings with laid eggs); assay type: in vivo; settings: 500 ppm, seedlings with laid eggs dipped about 30 seconds, 25° C., 6 days after dip treatment, criteria of Test Example 2
Source text: Insecticidal Test on Plutella xylostella
Adults of Plutella xylostella were released onto Chinese cabbage seedlings and allowed to lay eggs thereon. At 2 days after the release of the adults, the Chinese cabbage seedlings with laid eggs were dipped for about 30 seconds in agrochemical dispersions diluted to 500 ppm, each of which contained a different condensed heterocyclic compound represented by the general formula (1) of the present invention as an active ingredient. After air-dried, the seedlings were kept in a thermostatic chamber at 25° C. At 6 days after the dip treatment, the number of hatched larvae per plot was counted, the mortality rate was calculated according to the formula shown below, and the insecticidal efficacy was evaluated according to the criteria of Test Example 2. This test was conducted in triplicate using 10 adults of Plutella xylostella per plot. Corrected mortality rate (%)=100×(Number of hatched larvae in a non-treatment plot−Number of hatched larvae in a treatment plot)/Number of hatched larvae in a non-treatment plot [Math. 3]

[2] = test system: Laodelphax striatellus; experiment: Insecticidal test on Laodelphax striatellus (rice seedling dip); assay type: in vivo; settings: 500 ppm, rice seedlings dipped 30 seconds, 3rd-instar larvae, 8 days after inoculation
Source text: Insecticidal Test on Laodelphax striatellus
The condensed heterocyclic compounds represented by the general formula (1) of the present invention or salts thereof were separately dispersed in water and diluted to 500 ppm. Rice plant seedlings (variety: Nihonbare) were dipped in the agrochemical dispersions for 30 seconds. After air-dried, each seedling was put into a separate glass test tube and inoculated with ten 3rd-instar larvae of Laodelphax striatellus, and then the glass test tubes were capped with cotton plugs. At 8 days after the inoculation, the numbers of surviving larvae and dead larvae were counted, the corrected mortality rate was calculated according to the formula shown below, and the insecticidal efficacy was evaluated according to the criteria shown below. Corrected mortality rate (%)=100×(Survival rate in a non-treatment plot−Survival rate in a treatment plot)/Survival rate in a non-treatment plot [Math. 2] Corrected Mortality Rate A: the corrected mortality rate is 100%. B: the corrected mortality rate is 90 to 99%. C: the corrected mortality rate is 80 to 89%. D: the corrected mortality rate is 50 to 79%.

Structure (SMILES) | insecticidal efficacy (corrected mortality rate), activity level [1] | insecticidal efficacy (corrected mortality rate), activity level [2]
CCS(=O)(=O)c1cc2ccc(Br)cc2nc1-c1nnc2cc(C(F)(F)F)nc(C)n12 [Compound 4-41] | A (the corrected mortality rate is 100%) | A (the corrected mortality rate is 100%)
CCS(=O)(=O)c1cc(-c2ccc(F)cc2)cnc1-c1nnc2cc(C(F)(F)F)ncn12 [Compound 2-41] | A (the corrected mortality rate is 100%) | A (the corrected mortality rate is 100%)
CCS(=O)(=O)c1cc(C(F)(F)F)ccc1-c1nnc2c(Cl)cc(C(F)(F)F)cn12 [Compound 1-41] | A (the corrected mortality rate is 100%) | A (the corrected mortality rate is 100%)
CCS(=O)(=O)c1cc(-c2cccc(C(F)(F)F)c2)cnc1-c1nnc2cc(C(F)(F)C(F)(F)F)ncn12 [Compound 2-37] | A (the corrected mortality rate is 100%) | A (the corrected mortality rate is 100%)
CCS(=O)(=O)c1cc(-c2cccc(C(F)(F)F)c2)cnc1-c1nnc2nccc(C(F)(F)F)n12 [Compound 2-16] | A (the corrected mortality rate is 100%) | A (the corrected mortality rate is 100%)
CCS(=O)(=O)c1cc(C(F)(F)F)ccc1-c1nnc2c(C(F)(F)F)nccn12 [Compound 2-21] | A (the corrected mortality rate is 100%) | A (the corrected mortality rate is 100%)
CCS(=O)(=O)c1cc(-c2cccc(C(F)(F)F)c2)cnc1-c1nnc2nc(C(F)(F)F)ccn12 [Compound 2-1] | A (the corrected mortality rate is 100%) | A (the corrected mortality rate is 100%)
CCS(=O)(=O)c1cc(C(F)(F)F)ccc1-c1nnc2c(OCC(F)(F)C(F)(F)F)nccn12 [Compound 2-76] | A (the corrected mortality rate is 100%) | A (the corrected mortality rate is 100%)
CCS(=O)(=O)c1cc(C(F)(F)F)ccc1-c1nnc2c(C(F)(F)F)cccn12 [Compound 1-1] | A (the corrected mortality rate is 100%) | A (the corrected mortality rate is 100%)
CCS(=O)(=O)c1cc(C(F)(F)F)ccc1-c1nnc2ccc(C(F)(F)F)cn12 [Compound 1-21] | A (the corrected mortality rate is 100%) | A (the corrected mortality rate is 100%)
CCS(=O)(=O)c1cc(C(F)(F)F)ccc1-c1nnc2nc(C)cc(C(F)(F)F)n12 [Compound 2-72] | A (the corrected mortality rate is 100%) | A (the corrected mortality rate is 100%)
CCS(=O)(=O)c1cc(C(F)(F)F)ccc1-c1nnc2cc(C(F)(F)F)ncn12 [Compound 2-26] | A (the corrected mortality rate is 100%) | A (the corrected mortality rate is 100%)
CCS(=O)(=O)c1cc(-c2cccc(C(F)(F)F)c2)cnc1-c1nnc2ccccn12 [Compound 1-51] | A (the corrected mortality rate is 100%) | A (the corrected mortality rate is 100%)
CCS(=O)(=O)c1cc(-c2cccc(C(F)(F)F)c2)cnc1-c1nnc2c(Cl)cccn12 [Compound 1-53] | A (the corrected mortality rate is 100%) | A (the corrected mortality rate is 100%)
CCS(=O)(=O)c1cc(-c2ccc(F)c(F)c2)cnc1-c1nnc2cc(C(F)(F)F)ncn12 [Compound 2-68] | A (the corrected mortality rate is 100%) | A (the corrected mortality rate is 100%)
CCSc1cc2ccc(Br)cc2nc1-c1nnc2cc(C(F)(F)F)ncn12 [Compound 4-31] | A (the corrected mortality rate is 100%) | A (the corrected mortality rate is 100%)
CCS(=O)(=O)c1cc(C(F)(F)F)ccc1-c1nnc2cc(C(F)(F)F)ccn12 [Compound 1-11] | A (the corrected mortality rate is 100%) | A (the corrected mortality rate is 100%)
CCS(=O)(=O)c1cc(-c2cccc(C(F)(F)F)c2)cnc1-c1nnc2cc(C(F)(F)F)ccn12 [Compound 1-56] | A (the corrected mortality rate is 100%) | A (the corrected mortality rate is 100%)
CCc1nc(C(F)(F)F)cc2nnc(-c3ncc(-c4cccc(C(F)(F)F)c4)cc3S(=O)(=O)CC)n12 [Compound 2-74] | A (the corrected mortality rate is 100%) | A (the corrected mortality rate is 100%)
CCS(=O)(=O)c1cc(-c2cccc(C(F)(F)F)c2)cnc1-c1nnc2cc(C(F)(F)F)nc(C)n12 [Compound 2-56] | A (the corrected mortality rate is 100%) | A (the corrected mortality rate is 100%)
CCS(=O)(=O)c1cc(-c2ccc(Cl)cc2)cnc1-c1nnc2cc(C(F)(F)F)ncn12 [Compound 2-66] | A (the corrected mortality rate is 100%) | A (the corrected mortality rate is 100%)
CCS(=O)(=O)c1cc(-c2cccc(C(F)(F)F)c2)cnc1-c1nnc2nc(C)cc(C(F)(F)F)n12 [Compound 2-70] | A (the corrected mortality rate is 100%) | A (the corrected mortality rate is 100%)
CCS(=O)(=O)c1cc(C2CC2)cnc1-c1nnc2cc(C(F)(F)F)ncn12 [Compound 2-46] | A (the corrected mortality rate is 100%) | A (the corrected mortality rate is 100%)
CCSc1cc(C(F)(F)F)ccc1-c1nnc2c([N+](=O)[O-])cc(C(F)(F)F)cn12 [Compound 1-44] | A (the corrected mortality rate is 100%) | A (the corrected mortality rate is 100%)
CCS(=O)(=O)c1cc(-c2cccc(C(F)(F)F)c2)cnc1-c1nnc2cc(C(F)(F)F)nc(SC)n12 [Compound 2-75] | A (the corrected mortality rate is 100%) | A (the corrected mortality rate is 100%)
CCS(=O)(=O)c1cc(C(F)(F)F)ccc1-c1nnc2nc(C(F)(F)F)cc(C)n12 [Compound 2-71] | A (the corrected mortality rate is 100%) | A (the corrected mortality rate is 100%)

— patent US11064699B2, “Condensed heterocyclic compound or salt thereof, agricultural and horticultural insecticide comprising the compound or the salt, and method for using the insecticide” (Nihon Nohyaku Co., Ltd., priority 2017, dated 2021)
